## Drug screen on melanoma cell lines: apoptosis marker

Data from the primary screen of doi:10.1371/journal.pone.0140310, rounded.

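The test systems are human melanoma cell lines, treated with two drugs together for 72 h and then stained and imaged. The read-out is the fraction of cleaved-PARP-positive nuclei, in % of that fraction in the DMSO control; 200 means twice the control level of this apoptosis marker. Concentrations were fixed for each drug; these are the higher of two levels. These are primary screening values without error estimates. The marker varies much from line to line, for technical or biological reasons.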
An unselected part of the screen is shown.
A dash means that no value is listed here.

Compounds and concentrations:
fludarabine (1000 nM): Nc1nc(F)nc2c1ncn2[C@@H]1O[C@H](CO)[C@@H](O)[C@@H]1O
TCS401 (8330 nM): O=C(O)C(=O)Nc1sc2c(c1C(=O)O)CCNC2
dovitinib (500 nM): CN1CCN(c2ccc3nc(-c4c(N)c5c(F)cccc5[nH]c4=O)[nH]c3c2)CC1
vismodegib (5000 nM): CS(=O)(=O)c1ccc(C(=O)Nc2ccc(Cl)c(-c3ccccn3)c2)c(Cl)c1
CX-4945 (2000 nM): O=C(O)c1ccc2c(c1)nc(Nc1cccc(Cl)c1)c1ccncc12
PF-04217903 (5000 nM): OCCn1cc(-c2cnc3nnn(Cc4ccc5ncccc5c4)c3n2)cn1
KU-0063794 (100 nM): COc1ccc(-c2ccc3c(N4CCOCC4)nc(N4C[C@@H](C)O[C@@H](C)C4)nc3n2)cc1CO
AZD7762 (100 nM): NC(=O)Nc1cc(-c2cccc(F)c2)sc1C(=O)N[C@H]1CCCNC1
OSI-906 (2000 nM): C[C@]1(O)C[C@@H](c2nc(-c3ccc4ccc(-c5ccccc5)nc4c3)c3c(N)nccn32)C1
AS-252424 (5000 nM): O=C1NC(=O)/C(=C/c2ccc(-c3ccc(F)cc3O)o2)S1
embelin (6000 nM): CCCCCCCCCCCC1=C(O)C(=O)C=C(O)C1=O
nutlin-3 (500 nM): COc1ccc(C2=N[C@@H](c3ccc(Cl)cc3)[C@@H](c3ccc(Cl)cc3)N2C(=O)N2CCNC(=O)C2)c(OC(C)C)c1
PLX4720 (400 nM): CCCS(=O)(=O)Nc1ccc(F)c(C(=O)c2c[nH]c3ncc(Cl)cc23)c1F
sunitinib (2000 nM): CCN(CC)CCNC(=O)c1c(C)[nH]c(/C=C2\C(=O)Nc3ccc(F)cc32)c1C
CHIR-265 (400 nM): Cn1c(Nc2ccc(C(F)(F)F)cc2)nc2cc(Oc3ccnc(-c4ncc(C(F)(F)F)[nH]4)c3)ccc21
L-779450 (1000 nM): Oc1cc(-c2nc(-c3ccccc3)[nH]c2-c2ccncc2)ccc1Cl
nilotinib (1000 nM): Cc1cn(-c2cc(NC(=O)c3ccc(C)c(Nc4nccc(-c5cccnc5)n4)c3)cc(C(F)(F)F)c2)cn1
vatalanib (10000 nM): Clc1ccc(Nc2nnc(Cc3ccncc3)c3ccccc23)cc1

Combination	UACC-257	A2058	WM1716	WM1745	SK-MEL-5	IST-MEL1	MeWo	C32	COLO 829	UACC-62
nilotinib + KU-0063794	18.2	86.0	108	-	123	40.6	103	112	151	346
OSI-906 + nilotinib	66.7	120	65.1	211	336	128	111	56.6	80.3	290
PF-04217903 + fludarabine	4530	90.0	59.0	101	2840	95.7	121	97.8	115	58.8
nutlin-3 + AS-252424	20.6	72.4	107	-	123	37.6	81.8	101	120	268
CX-4945 + nilotinib	91.5	153	186	146	77.1	324	75.0	184	112	290
CX-4945 + AZD7762	83.0	369	1100	99.0	250	193	153	381	317	162
OSI-906 + CHIR-265	79.0	172	116	240	433	71.3	122	409	170	296
embelin + L-779450	20.8	132	38.1	293	28.2	166	55.4	202	106	1060
CHIR-265 + nilotinib	138	268	56.2	212	2960	57.6	117	313	222	414
PF-04217903 + sunitinib	52.5	174	43.8	107	240	172	74.1	51.1	46.2	95.2
PF-04217903 + embelin	51.8	54.8	31.5	131	98.5	168	60.1	81.4	71.5	98.6
L-779450 + vismodegib	22.2	104	75.5	-	89.2	39.4	38.2	91.1	162	417
vismodegib + AZD7762	64.8	264	189	114	121	195	306	242	178	124
embelin + dovitinib	35.2	561	57.9	-	70.2	260	235	114	144	310
AS-252424 + vatalanib	28.5	149	94.6	-	260	69.7	108	94.2	107	44.3
dovitinib + AS-252424	37.3	1140	88.6	-	169	219	346	80.3	319	89.1
CHIR-265 + KU-0063794	83.4	177	164	158	1440	75.2	133	275	151	196
PLX4720 + AS-252424	67.7	203	249	-	91.9	159	158	103	113	246
AZD7762 + dovitinib	35.5	1210	181	158	85.6	70.7	349	370	235	81.1
CX-4945 + fludarabine	8110	207	94.7	103	3170	81.9	136	123	195	296
TCS401 + vatalanib	16.0	57.4	46.1	-	41.0	117	41.9	92.3	47.1	71.1
sunitinib + AS-252424	58.6	365	62.4	-	86.4	43.3	81.7	251	153	26.3
TCS401 + KU-0063794	68.6	90.2	137	134	58.2	353	139	94.5	71.5	345
L-779450 + nutlin-3	37.9	80.9	206	-	209	110	114	121	437	597
vatalanib + sunitinib	45.3	189	72.6	277	314	134	107	171	66.2	240
AZD7762 + nilotinib	196	209	570	140	100	123	278	355	72.2	168

2 of the entries, repeated:

Combination	UACC-257	A2058	WM1716	WM1745	SK-MEL-5	IST-MEL1	MeWo	C32	COLO 829	UACC-62
OSI-906 + CHIR-265	79.0	172	116	240	433	71.3	122	409	170	296
AS-252424 + vatalanib	28.5	149	94.6	-	260	69.7	108	94.2	107	44.3